# Assay results from the supplement of paper PMC8728848.
# The list shows a part of the results.
# Key:
# Assay in all cases: glycan array binding signal (z-score within array); higher = stronger binding
# Settings in all cases: glycan notation: IUPAC condensed, linker removed
# [1] = biological target: Neu5Ac(a2-6)Gal(b1-3)GlcNAc(b1-3)[Gal(b1-4)GlcNAc(b1-6)]Gal(b1-4)Glc
# In short: (§1)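 Glycan array data were curated from 3228 arrays in the Consortium for Functional Glycomics database and kept only where the protein sequence was available. Glycan names were converted to IUPAC-condensed notation, and columns mapping to the same glycan were averaged. The binding signal is a within-array Z-score, averaged across arrays of the same protein sequence at different concentrations or buffers and across linkers. Negative Z-scores can be read as non-binding.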
# Neu5Ac(a2-6)Gal(b1-4)Glc = biological target: Neu5Ac(a2-6)Gal(b1-4)Glc
# In short: as §1
# [2] = biological target: Neu5Ac(a2-6)Gal(b1-4)GlcNAc
# In short: as §1
# [3] = biological target: Neu5Ac(a2-6)Gal(b1-4)GlcNAc(b1-2)Man
# In short: as §1
# [4] = biological target: Neu5Ac(a2-6)Gal(b1-4)GlcNAc(b1-2)Man(a1-3)Man(b1-4)GlcNAc(b1-4)GlcNAc
# In short: as §1
# [5] = biological target: Neu5Ac(a2-6)Gal(b1-4)GlcNAc(b1-2)Man(a1-3)[Gal(b1-4)GlcNAc(b1-2)Man(a1-6)]Man(b1-4)GlcNAc(b1-4)GlcNAc
# In short: as §1
# [6] = biological target: Neu5Ac(a2-6)Gal(b1-4)GlcNAc(b1-2)Man(a1-3)[GlcNAc(b1-2)Man(a1-6)]Man(b1-4)GlcNAc(b1-4)GlcNAc
# In short: as §1
# [7] = biological target: Neu5Ac(a2-6)Gal(b1-4)GlcNAc(b1-2)Man(a1-3)[GlcNAc(b1-4)][Neu5Ac(a2-6)Gal(b1-4)GlcNAc(b1-2)Man(a1-6)]Man(b1-4)GlcNAc(b1-4)GlcNAc
# In short: as §1
# [8] = biological target: Neu5Ac(a2-6)Gal(b1-4)GlcNAc(b1-2)Man(a1-3)[Man(a1-6)]Man(b1-4)GlcNAc(b1-4)GlcNAc
# In short: as §1
# [9] = biological target: Neu5Ac(a2-6)Gal(b1-4)GlcNAc(b1-2)Man(a1-3)[Neu5Ac(a2-3)Gal(b1-4)GlcNAc(b1-2)Man(a1-6)]Man(b1-4)GlcNAc(b1-4)GlcNAc
# In short: as §1
# [10] = biological target: Neu5Ac(a2-6)Gal(b1-4)GlcNAc(b1-2)Man(a1-3)[Neu5Ac(a2-6)Gal(b1-4)GlcNAc(b1-2)Man(a1-6)]Man(b1-4)GlcNAc(b1-4)GlcNAc
# In short: as §1
# [11] = biological target: Neu5Ac(a2-6)Gal(b1-4)GlcNAc(b1-2)Man(a1-3)[Neu5Ac(a2-6)Gal(b1-4)GlcNAc(b1-2)Man(a1-6)]Man(b1-4)GlcNAc(b1-4)[Fuc(a1-6)]GlcNAc
# In short: as §1
# [12] = biological target: Neu5Ac(a2-6)Gal(b1-4)GlcNAc(b1-2)Man(a1-6)Man(b1-4)GlcNAc(b1-4)GlcNAc
# In short: as §1
# [13] = biological target: Neu5Ac(a2-6)Gal(b1-4)GlcNAc(b1-2)Man(a1-6)[Gal(b1-4)GlcNAc(b1-2)Man(a1-3)]Man(b1-4)GlcNAc(b1-4)GlcNAc
# In short: as §1
# [14] = biological target: Neu5Ac(a2-6)Gal(b1-4)GlcNAc(b1-2)Man(a1-6)[GlcNAc(b1-2)Man(a1-3)]Man(b1-4)GlcNAc(b1-4)GlcNAc
# In short: as §1
# [15] = biological target: Neu5Ac(a2-6)Gal(b1-4)GlcNAc(b1-2)Man(a1-6)[Man(a1-3)]Man(b1-4)GlcNAc(b1-4)GlcNAc
# In short: as §1
# [16] = biological target: Neu5Ac(a2-6)Gal(b1-4)GlcNAc(b1-2)[Neu5Ac(a2-6)Gal(b1-4)GlcNAc(b1-4)]Man(a1-3)[GlcNAc(b1-4)][Neu5Ac(a2-6)Gal(b1-4)GlcNAc(b1-2)[Neu5Ac(a2-6)Gal(b1-4)GlcNAc(b1-6)]Man(a1-6)]Man(b1-4)GlcNAc(b1-4)GlcNAc
# In short: as §1
# [17] = biological target: Neu5Ac(a2-6)Gal(b1-4)GlcNAc(b1-2)[Neu5Ac(a2-6)Gal(b1-4)GlcNAc(b1-4)]Man(a1-3)[GlcNAc(b1-4)][Neu5Ac(a2-6)Gal(b1-4)GlcNAc(b1-4)Man(a1-6)]Man(b1-4)GlcNAc(b1-4)GlcNAc
# In short: as §1
# [18] = biological target: Neu5Ac(a2-6)Gal(b1-4)GlcNAc(b1-2)[Neu5Ac(a2-6)Gal(b1-4)GlcNAc(b1-6)]Man(a1-6)[Neu5Ac(a2-6)Gal(b1-4)GlcNAc(b1-2)Man(a1-3)][GlcNAc(b1-4)]Man(b1-4)GlcNAc(b1-4)GlcNAc
# In short: as §1
# [19] = biological target: Neu5Ac(a2-6)Gal(b1-4)GlcNAc(b1-3)Gal(b1-3)GlcNAc
# In short: as §1
# [20] = biological target: Neu5Ac(a2-6)Gal(b1-4)GlcNAc(b1-3)Gal(b1-4)GlcNAc
# In short: as §1
# [21] = biological target: Neu5Ac(a2-6)Gal(b1-4)GlcNAc(b1-3)Gal(b1-4)GlcNAc(b1-2)Man(a1-3)[Neu5Ac(a2-6)Gal(b1-4)GlcNAc(b1-3)Gal(b1-4)GlcNAc(b1-2)Man(a1-6)]GalNAc
# In short: as §1
# [22] = biological target: Neu5Ac(a2-6)Gal(b1-4)GlcNAc(b1-3)Gal(b1-4)GlcNAc(b1-3)Gal(b1-4)GlcNAc
# In short: as §1
# [23] = biological target: Neu5Ac(a2-6)Gal(b1-4)GlcNAc(b1-3)Gal(b1-4)GlcNAc(b1-3)Gal(b1-4)GlcNAc(b1-2)Man(a1-3)[Neu5Ac(a2-6)Gal(b1-4)GlcNAc(b1-3)Gal(b1-4)GlcNAc(b1-3)Gal(b1-4)GlcNAc(b1-2)Man(a1-6)]GalNAc
# In short: as §1
# [24] = biological target: Neu5Ac(a2-6)Gal(b1-4)GlcNAc(b1-3)Gal(b1-4)GlcNAc(b1-3)GalNAc
# In short: as §1
# [25] = biological target: Neu5Ac(a2-6)Gal(b1-4)GlcNAc(b1-3)Gal(b1-4)GlcNAc(b1-3)[Neu5Ac(a2-6)Gal(b1-4)GlcNAc(b1-3)Gal(b1-4)GlcNAc(b1-6)]GalNAc
# In short: as §1
# [26] = biological target: Neu5Ac(a2-6)Gal(b1-4)GlcNAc(b1-3)Gal(b1-4)GlcNAc(b1-6)[Gal(b1-3)]GalNAc
# In short: as §1
# [27] = biological target: Neu5Ac(a2-6)Gal(b1-4)GlcNAc(b1-3)Gal(b1-4)[Fuc(a1-3)]GlcNAc(b1-3)Gal(b1-4)[Fuc(a1-3)]GlcNAc
# In short: as §1
# [28] = biological target: Neu5Ac(a2-6)Gal(b1-4)GlcNAc(b1-3)GalNAc
# In short: as §1
# [29] = biological target: Neu5Ac(a2-6)Gal(b1-4)GlcNAc(b1-3)[Neu5Ac(a2-6)Gal(b1-4)GlcNAc(b1-6)]GalNAc
# In short: as §1
# [30] = biological target: Neu5Ac(a2-6)Gal(b1-4)GlcNAc(b1-6)GalNAc
# In short: as §1
# [31] = biological target: Neu5Ac(a2-6)Gal(b1-4)GlcNAc(b1-6)[Gal(b1-3)GlcNAc(b1-3)]Gal(b1-4)Glc
# In short: as §1
# [32] = biological target: Neu5Ac(a2-6)Gal(b1-4)GlcNAc(b1-6)[Gal(b1-3)]GalNAc
# In short: as §1
# [33] = biological target: Neu5Ac(a2-6)Gal(b1-4)GlcNAc6S
# In short: as §1
# Neu5Ac(a2-6)GalNAc = biological target: Neu5Ac(a2-6)GalNAc
# In short: as §1
# [34] = biological target: Neu5Ac(a2-6)GalNAc(b1-4)GlcNAc
# In short: as §1
# [35] = biological target: Neu5Ac(a2-6)GalNAc(b1-4)GlcNAc6S
# In short: as §1
# [36] = biological target: Neu5Ac(a2-6)GlcNAc(b1-4)GlcNAc
# In short: as §1
binder,measurement,setting,value
"SfaEH (Escherichia coli), Q1RDG5 (protein) LLCRNNQTGQVFNSGDTSFRVNVSPVVQYDKSISVLDLSQLVSCQNEDSTGQNYDYLKILKGSGFSPALDTKTYGRLDFTSRPTGYARQLPLQFDLQVTEAFYQYGVWKPFPAKLYLYPAPGVFGKVINNGDLLATLYVNKFSTKGQEAGERNFTWRFYATNDVYIQTGTCRVSSNNVKVDLPSYPGGPVTVPLTVRCDQTQSVSYTLSGPVTGSGNTVFANTAASGSGGVGIQLSDNVGPVPAGQPRSLGQVGSSPVSLGLKASYALTGQASPTPGAVQSVINVTFSYN",glycan array binding signal (z-score),[1],0.302
same,glycan array binding signal (z-score),Neu5Ac(a2-6)Gal(b1-4)Glc,0.341
same,glycan array binding signal (z-score),[2],-0.226
same,glycan array binding signal (z-score),[3],-0.715
same,glycan array binding signal (z-score),[4],-0.437
same,glycan array binding signal (z-score),[5],-0.141
same,glycan array binding signal (z-score),[6],-0.438
same,glycan array binding signal (z-score),[7],-0.618
same,glycan array binding signal (z-score),[8],1.08
same,glycan array binding signal (z-score),[9],-0.085
same,glycan array binding signal (z-score),[10],-0.893
same,glycan array binding signal (z-score),[11],-0.548
same,glycan array binding signal (z-score),[12],-0.928
same,glycan array binding signal (z-score),[13],-0.563
same,glycan array binding signal (z-score),[14],-0.61
same,glycan array binding signal (z-score),[15],-0.497
same,glycan array binding signal (z-score),[16],1.04
same,glycan array binding signal (z-score),[17],0.462
same,glycan array binding signal (z-score),[18],-0.534
same,glycan array binding signal (z-score),[19],-0.233
same,glycan array binding signal (z-score),[20],-0.825
same,glycan array binding signal (z-score),[21],0.499
same,glycan array binding signal (z-score),[22],0.269
same,glycan array binding signal (z-score),[23],0.387
same,glycan array binding signal (z-score),[24],-0.826
same,glycan array binding signal (z-score),[25],0.149
same,glycan array binding signal (z-score),[26],0.079
same,glycan array binding signal (z-score),[27],-0.154
same,glycan array binding signal (z-score),[28],-0.906
same,glycan array binding signal (z-score),[29],2.22
same,glycan array binding signal (z-score),[30],0.382
same,glycan array binding signal (z-score),[31],0.131
same,glycan array binding signal (z-score),[32],0.841
same,glycan array binding signal (z-score),[33],0.154
same,glycan array binding signal (z-score),Neu5Ac(a2-6)GalNAc,0.409
same,glycan array binding signal (z-score),[34],-0.131
same,glycan array binding signal (z-score),[35],-0.6
same,glycan array binding signal (z-score),[36],-0.508

# Some of the entries so far, tab-delimited.
binder	measurement	setting	value
SfaEH (Escherichia coli), Q1RDG5 (protein) LLCRNNQTGQVFNSGDTSFRVNVSPVVQYDKSISVLDLSQLVSCQNEDSTGQNYDYLKILKGSGFSPALDTKTYGRLDFTSRPTGYARQLPLQFDLQVTEAFYQYGVWKPFPAKLYLYPAPGVFGKVINNGDLLATLYVNKFSTKGQEAGERNFTWRFYATNDVYIQTGTCRVSSNNVKVDLPSYPGGPVTVPLTVRCDQTQSVSYTLSGPVTGSGNTVFANTAASGSGGVGIQLSDNVGPVPAGQPRSLGQVGSSPVSLGLKASYALTGQASPTPGAVQSVINVTFSYN	glycan array binding signal (z-score)	[2]	-0.226
same	glycan array binding signal (z-score)	[11]	-0.548
same	glycan array binding signal (z-score)	[14]	-0.61
same	glycan array binding signal (z-score)	[15]	-0.497
same	glycan array binding signal (z-score)	[24]	-0.826
same	glycan array binding signal (z-score)	[29]	2.22
same	glycan array binding signal (z-score)	Neu5Ac(a2-6)GalNAc	0.409
